This is one part of the list. Residues, ends and D or L forms follow the SMILES beside them. *: point of attachment. Cbz = O=C(OCc1ccccc1)*
Key:
Assay in all cases: log2 fold change, soluble protein after heating vs DMSO (PISA); higher = thermal stabilisation; K562 cells, 10 uM, 30 min; active = over 0.2 and 3.5 SD of the protein, either way, in both replicates (recomputed)
IRAK-1-4 Inhibitor I = compound: C1COCCN1CCN2C3=CC=CC=C3N=C2NC(=O)C4=CC(=CC=C4)[N+](=O)[O-] [IRAK-1-4 Inhibitor I]
How it was run: (§1)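 K562 cells at 2×10^6 cells/mL were treated with 10 μM compound for 30 min. Aliquots were heated for 3 min across 48°C-58°C, pooled, and extracted in PBS with 0.5% NP-40 at 4°C; soluble protein was the supernatant after 21,000xg for 90 min. Soluble protein was quantified by TMTpro 16plex LC-MS/MS with channel sums equalised, and reported as log2 fold change in thermal stability against DMSO controls, with values from duplicates.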

Amino acid sequences for entries named in this document (tags omitted). A change or cut given only in a name is not applied to a line headed by its entry.
UniProt P35613: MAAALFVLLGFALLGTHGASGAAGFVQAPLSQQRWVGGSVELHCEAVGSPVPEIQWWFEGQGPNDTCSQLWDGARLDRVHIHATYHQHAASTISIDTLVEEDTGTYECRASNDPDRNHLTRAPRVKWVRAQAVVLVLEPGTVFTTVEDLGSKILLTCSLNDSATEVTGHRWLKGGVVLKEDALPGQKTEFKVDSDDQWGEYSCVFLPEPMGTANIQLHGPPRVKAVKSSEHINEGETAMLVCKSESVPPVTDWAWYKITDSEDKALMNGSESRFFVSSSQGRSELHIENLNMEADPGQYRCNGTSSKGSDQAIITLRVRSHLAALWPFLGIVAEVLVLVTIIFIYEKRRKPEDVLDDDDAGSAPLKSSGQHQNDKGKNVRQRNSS
UniProt Q8WUR7: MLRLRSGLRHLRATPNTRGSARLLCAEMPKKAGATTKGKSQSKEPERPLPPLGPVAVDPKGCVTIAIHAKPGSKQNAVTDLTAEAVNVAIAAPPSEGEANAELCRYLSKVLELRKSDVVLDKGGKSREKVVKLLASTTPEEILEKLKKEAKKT
UniProt O43852: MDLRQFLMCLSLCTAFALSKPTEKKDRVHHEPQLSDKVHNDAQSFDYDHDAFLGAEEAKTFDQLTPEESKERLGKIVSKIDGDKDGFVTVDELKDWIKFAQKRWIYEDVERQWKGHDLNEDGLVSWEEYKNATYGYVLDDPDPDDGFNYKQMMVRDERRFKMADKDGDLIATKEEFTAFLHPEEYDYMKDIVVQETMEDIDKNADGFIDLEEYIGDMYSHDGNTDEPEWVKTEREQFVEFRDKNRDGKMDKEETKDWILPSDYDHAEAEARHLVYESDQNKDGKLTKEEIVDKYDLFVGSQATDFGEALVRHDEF
UniProt Q8N999, whole entry, looked up: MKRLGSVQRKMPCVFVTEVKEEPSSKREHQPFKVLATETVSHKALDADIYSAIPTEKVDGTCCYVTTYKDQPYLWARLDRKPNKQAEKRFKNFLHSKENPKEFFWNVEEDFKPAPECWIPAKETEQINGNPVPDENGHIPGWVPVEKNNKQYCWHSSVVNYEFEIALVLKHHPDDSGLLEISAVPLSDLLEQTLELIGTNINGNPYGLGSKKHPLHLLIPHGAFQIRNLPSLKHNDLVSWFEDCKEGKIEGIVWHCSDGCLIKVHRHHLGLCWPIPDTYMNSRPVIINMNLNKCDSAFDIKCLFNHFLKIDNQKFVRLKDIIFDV
UniProt Q96EU7: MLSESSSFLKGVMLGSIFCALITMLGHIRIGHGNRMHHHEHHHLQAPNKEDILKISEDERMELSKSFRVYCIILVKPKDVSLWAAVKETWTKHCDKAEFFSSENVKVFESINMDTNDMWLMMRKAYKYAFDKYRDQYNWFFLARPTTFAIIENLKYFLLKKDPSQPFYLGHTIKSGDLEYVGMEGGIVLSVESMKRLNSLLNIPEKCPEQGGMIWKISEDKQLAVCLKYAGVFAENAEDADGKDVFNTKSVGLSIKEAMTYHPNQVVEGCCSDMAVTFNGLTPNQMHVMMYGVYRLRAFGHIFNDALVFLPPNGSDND
UniProt O43684, whole entry, looked up: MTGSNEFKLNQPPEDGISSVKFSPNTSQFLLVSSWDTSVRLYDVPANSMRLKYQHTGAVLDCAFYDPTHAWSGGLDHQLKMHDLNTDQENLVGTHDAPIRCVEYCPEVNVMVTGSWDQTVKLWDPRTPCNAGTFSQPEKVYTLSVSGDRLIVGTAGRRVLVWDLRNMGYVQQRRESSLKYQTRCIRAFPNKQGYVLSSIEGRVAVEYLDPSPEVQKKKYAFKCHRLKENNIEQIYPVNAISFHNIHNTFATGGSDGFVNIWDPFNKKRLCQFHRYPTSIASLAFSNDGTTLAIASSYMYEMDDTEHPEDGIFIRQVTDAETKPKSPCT
UniProt Q9BVC5: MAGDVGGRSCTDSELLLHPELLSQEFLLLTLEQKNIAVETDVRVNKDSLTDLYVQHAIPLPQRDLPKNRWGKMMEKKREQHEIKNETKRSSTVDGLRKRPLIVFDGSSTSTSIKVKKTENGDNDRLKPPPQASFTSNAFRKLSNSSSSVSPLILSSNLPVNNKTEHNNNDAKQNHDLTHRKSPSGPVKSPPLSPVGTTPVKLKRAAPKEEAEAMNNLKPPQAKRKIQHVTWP
UniProt P07384: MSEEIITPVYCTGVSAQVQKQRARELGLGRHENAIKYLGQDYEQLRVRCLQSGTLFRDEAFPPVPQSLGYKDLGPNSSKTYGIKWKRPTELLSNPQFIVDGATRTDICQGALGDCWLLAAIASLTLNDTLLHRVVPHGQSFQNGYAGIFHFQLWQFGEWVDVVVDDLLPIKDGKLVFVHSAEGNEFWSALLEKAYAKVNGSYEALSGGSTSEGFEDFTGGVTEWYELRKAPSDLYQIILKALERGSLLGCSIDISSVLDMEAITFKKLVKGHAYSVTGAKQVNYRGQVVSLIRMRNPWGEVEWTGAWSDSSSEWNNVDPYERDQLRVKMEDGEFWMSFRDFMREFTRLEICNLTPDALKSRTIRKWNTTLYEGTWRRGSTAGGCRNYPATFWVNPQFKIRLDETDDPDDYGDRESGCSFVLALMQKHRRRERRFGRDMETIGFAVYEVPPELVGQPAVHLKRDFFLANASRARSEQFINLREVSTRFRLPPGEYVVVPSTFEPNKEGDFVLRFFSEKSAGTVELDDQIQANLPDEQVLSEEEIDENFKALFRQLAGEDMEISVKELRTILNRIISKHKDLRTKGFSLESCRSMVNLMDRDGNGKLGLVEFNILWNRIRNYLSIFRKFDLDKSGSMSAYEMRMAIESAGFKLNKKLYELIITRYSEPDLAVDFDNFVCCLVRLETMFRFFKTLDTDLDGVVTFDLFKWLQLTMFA
UniProt Q8N5I9: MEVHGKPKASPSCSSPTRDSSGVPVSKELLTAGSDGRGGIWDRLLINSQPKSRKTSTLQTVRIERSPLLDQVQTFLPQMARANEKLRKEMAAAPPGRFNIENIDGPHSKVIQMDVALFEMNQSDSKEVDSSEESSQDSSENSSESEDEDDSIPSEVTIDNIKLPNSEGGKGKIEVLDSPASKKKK
UniProt Q9Y426: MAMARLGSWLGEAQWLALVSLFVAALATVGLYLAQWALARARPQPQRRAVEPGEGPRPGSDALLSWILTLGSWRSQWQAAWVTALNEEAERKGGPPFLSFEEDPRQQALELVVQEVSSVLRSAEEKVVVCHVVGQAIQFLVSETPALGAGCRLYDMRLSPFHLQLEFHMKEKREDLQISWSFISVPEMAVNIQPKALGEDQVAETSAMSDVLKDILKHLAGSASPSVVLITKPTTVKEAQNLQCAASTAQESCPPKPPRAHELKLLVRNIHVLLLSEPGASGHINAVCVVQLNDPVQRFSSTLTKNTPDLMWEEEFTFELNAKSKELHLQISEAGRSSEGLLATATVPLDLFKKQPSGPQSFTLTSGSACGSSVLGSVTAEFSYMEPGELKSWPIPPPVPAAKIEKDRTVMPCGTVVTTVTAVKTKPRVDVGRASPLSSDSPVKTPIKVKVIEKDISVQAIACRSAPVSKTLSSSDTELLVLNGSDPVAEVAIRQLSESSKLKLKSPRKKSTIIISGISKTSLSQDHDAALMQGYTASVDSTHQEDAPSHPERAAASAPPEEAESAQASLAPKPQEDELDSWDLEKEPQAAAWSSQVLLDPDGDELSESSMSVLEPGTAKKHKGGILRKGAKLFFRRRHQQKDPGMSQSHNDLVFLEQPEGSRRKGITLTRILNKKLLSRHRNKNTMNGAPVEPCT
UniProt Q9H0W9: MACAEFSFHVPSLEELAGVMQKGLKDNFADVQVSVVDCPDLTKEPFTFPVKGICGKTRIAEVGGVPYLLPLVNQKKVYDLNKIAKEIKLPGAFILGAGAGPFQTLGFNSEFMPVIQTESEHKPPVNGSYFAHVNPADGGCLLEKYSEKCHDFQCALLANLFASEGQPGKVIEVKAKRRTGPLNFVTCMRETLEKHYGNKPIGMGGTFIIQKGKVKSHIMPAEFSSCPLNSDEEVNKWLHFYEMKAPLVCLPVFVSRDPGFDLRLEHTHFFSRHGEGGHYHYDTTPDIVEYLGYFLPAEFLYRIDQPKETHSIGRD
UniProt Q9HAS0: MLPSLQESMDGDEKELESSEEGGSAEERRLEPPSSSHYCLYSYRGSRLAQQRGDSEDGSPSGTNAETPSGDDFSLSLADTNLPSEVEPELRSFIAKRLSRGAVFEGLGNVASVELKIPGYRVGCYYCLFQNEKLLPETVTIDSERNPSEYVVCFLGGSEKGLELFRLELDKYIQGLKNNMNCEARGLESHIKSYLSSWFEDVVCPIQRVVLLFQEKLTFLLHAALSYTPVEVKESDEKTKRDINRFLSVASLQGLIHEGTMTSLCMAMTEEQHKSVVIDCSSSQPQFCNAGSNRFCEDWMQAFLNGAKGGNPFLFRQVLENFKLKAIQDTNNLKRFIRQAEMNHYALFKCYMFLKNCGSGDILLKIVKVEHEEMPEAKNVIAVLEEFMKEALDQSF
UniProt Q9NX04: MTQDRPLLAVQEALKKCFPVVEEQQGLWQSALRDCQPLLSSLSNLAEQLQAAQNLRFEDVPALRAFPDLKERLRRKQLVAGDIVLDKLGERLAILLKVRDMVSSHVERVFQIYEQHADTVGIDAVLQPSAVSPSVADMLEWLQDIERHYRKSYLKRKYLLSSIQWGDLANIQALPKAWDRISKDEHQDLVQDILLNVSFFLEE
UniProt Q9H3H3: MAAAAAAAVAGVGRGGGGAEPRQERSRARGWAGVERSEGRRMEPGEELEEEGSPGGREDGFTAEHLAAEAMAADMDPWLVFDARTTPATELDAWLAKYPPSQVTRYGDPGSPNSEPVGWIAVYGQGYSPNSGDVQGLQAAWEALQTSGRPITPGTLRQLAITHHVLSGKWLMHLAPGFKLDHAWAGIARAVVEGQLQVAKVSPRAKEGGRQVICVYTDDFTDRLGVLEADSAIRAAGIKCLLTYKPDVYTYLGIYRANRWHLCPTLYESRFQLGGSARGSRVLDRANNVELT
UniProt O14523: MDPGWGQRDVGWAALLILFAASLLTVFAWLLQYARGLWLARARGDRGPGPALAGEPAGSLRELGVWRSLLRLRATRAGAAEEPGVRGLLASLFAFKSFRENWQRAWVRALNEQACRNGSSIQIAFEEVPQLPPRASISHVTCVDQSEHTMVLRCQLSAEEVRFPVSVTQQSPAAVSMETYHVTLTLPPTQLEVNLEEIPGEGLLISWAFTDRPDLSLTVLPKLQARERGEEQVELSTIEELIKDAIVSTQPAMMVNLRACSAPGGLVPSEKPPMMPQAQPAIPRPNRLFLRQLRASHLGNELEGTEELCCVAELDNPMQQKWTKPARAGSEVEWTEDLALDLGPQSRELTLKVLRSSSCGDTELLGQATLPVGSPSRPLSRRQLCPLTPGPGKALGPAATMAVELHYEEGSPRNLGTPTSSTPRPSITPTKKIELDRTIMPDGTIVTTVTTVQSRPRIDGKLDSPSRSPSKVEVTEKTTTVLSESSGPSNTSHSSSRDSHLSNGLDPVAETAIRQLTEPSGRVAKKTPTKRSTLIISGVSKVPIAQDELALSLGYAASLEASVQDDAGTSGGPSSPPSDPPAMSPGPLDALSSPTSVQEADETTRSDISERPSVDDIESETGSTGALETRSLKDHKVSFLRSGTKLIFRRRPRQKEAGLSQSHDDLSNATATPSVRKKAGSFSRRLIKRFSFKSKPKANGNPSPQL

ibrutinib = compound: C=CC(=O)N1CCC[C@@H](n2nc(-c3ccc(Oc4ccccc4)cc3)c3c(N)ncnc32)C1 [ibrutinib]
How it was run: as §1

[1] = compound: CC(=O)c1cnc2ccc(-c3cc(Cl)c(O)c(Cl)c3)nc2c1N[C@H]1CC[C@H](CN(C)C)CC1
How it was run: as §1

ralimetinib = compound: CC(C)(C)Cn1c(N)nc2ccc(-c3[nH]c(C(C)(C)C)nc3-c3ccc(F)cc3)nc21 [ralimetinib]
How it was run: as §1

[2] = compound: CC(C)(O)CC(=O)NCCn1ccc2ncnc(Nc3ccc(Oc4cccc(C(F)(F)F)c4)c(Cl)c3)c21
How it was run: as §1

[3] = compound: CC(C)C1=C2N=C(C=C(N2N=C1)NCC3=CC=CC=C3)NCCCCCCN
How it was run: as §1

[4] = compound: CC(C)C[C@@H](C=O)NC(=O)[C@H](CC(C)C)NC(=O)[C@H](CC(C)C)NC(=O)OCc1ccccc1
How it was run: as §1

pinometostat = compound: CC(C)N(C[C@H]1O[C@@H](n2cnc3c(N)ncnc32)[C@H](O)[C@@H]1O)[C@H]1C[C@@H](CCc2nc3cc(C(C)(C)C)ccc3[nH]2)C1 [pinometostat]
How it was run: as §1

[5] = compound: CC1=C(C(CC(=O)N1)C2=CC=C(C=C2)C(F)(F)F)C(=O)NC3=C(C=C4C(=C3)C=NN4)F
How it was run: as §1

[6] = compound: CC1=C(C2=C(C=C1)C(=O)C3=CC=CC=C3N2CCCN)C
How it was run: as §1

[7] = compound: CC1=C(C=C(C=C1)NC(=O)C2=CC(=CC=C2)C(C)(C)C#N)NC3=CC4=C(C=C3)N=CN(C4=O)C
How it was run: as §1

[8] = compound: CC1=C(C=C(C=C1)NC(=O)C2=CC(=CC=C2)N(C)C)NC(=O)C3=CC=C(C=C3)O
How it was run: as §1

[9] = compound: CC1=CC=C(C=C1)SC2=C3C=C(SC3=CN=C2)C(=O)N
How it was run: as §1

[10] = compound: CC1=NC(=CC=C1)C2=C(N=C(N2)C(C)(C)C)C3=CC4=NC=CN=C4C=C3
How it was run: as §1

Nexturastat A = compound: CCCCN(Cc1ccc(C(=O)NO)cc1)C(=O)Nc1ccccc1 [Nexturastat A]
How it was run: as §1

vemurafenib = compound: CCCS(=O)(=O)Nc1ccc(F)c(C(=O)c2c[nH]c3ncc(-c4ccc(Cl)cc4)cc23)c1F [vemurafenib]
How it was run: as §1

[11] = compound: CCCS(=O)(=O)Nc1ccc(F)c(C(=O)c2c[nH]c3ncc(Cl)cc23)c1F
How it was run: as §1

[12] = compound: CCCc1cc(C)[nH]c(=O)c1CNC(=O)c1cc(-c2ccnc(N3CCN(C)CC3)c2)cc2c1cnn2C(C)C
How it was run: as §1

givinostat = compound: CCN(CC)Cc1ccc2cc(COC(=O)Nc3ccc(C(=O)NO)cc3)ccc2c1 [givinostat]
How it was run: as §1

barasertib = compound: CCN(CCCOc1ccc2c(Nc3cc(CC(=O)Nc4cccc(F)c4)[nH]n3)ncnc2c1)CCOP(=O)(O)O [barasertib]
How it was run: as §1

Measured: log2 fold change

BSG (UniProt P35613)
inactive: IRAK-1-4 Inhibitor I 0.021 | ibrutinib 0.012 | [1] -0.043 | ralimetinib -0.041 | [2] 0.022 | [3] 0.165 | [4] -0.001 | pinometostat -0.01 | [5] -0.013 | [6] 0.037 | [7] -0.003 | [8] 0.018 | [9] 0.024 | [10] -0.004 | Nexturastat A -0.047 | vemurafenib -0.006 | [11] -0.004 | [12] -0.014 | givinostat -0.021 | barasertib -0.023

C15orf40 (UniProt Q8WUR7)
inactive: IRAK-1-4 Inhibitor I 0.133 | ibrutinib 0.017 | [1] -0.021 | ralimetinib -0.071 | [2] 0.048 | [3] 0.068 | [4] 0.046 | pinometostat 0.042 | [5] 0.021 | [6] -0.062 | [7] -0.067 | [8] 0 | [9] -0.048 | [10] -0.034 | Nexturastat A 0.011 | vemurafenib -0.042 | [11] -0.064 | [12] -0.041 | givinostat -0.003 | barasertib 0.003

CALU isoform 4 (UniProt O43852)
inactive: IRAK-1-4 Inhibitor I 0.081 | ibrutinib -0.024 | [1] 0.039 | ralimetinib -0.105 | [2] 0.057 | [3] 0.013 | [4] -0.034 | pinometostat -0.047 | [5] -0.019 | [6] -0.024 | [7] -0.015 | [8] -0.005 | [9] 0.027 | [10] 0.006 | Nexturastat A -0.062 | vemurafenib -0.024 | [11] -0.031 | [12] -0.056 | givinostat -0.016 | barasertib -0.014

C12orf29 (UniProt Q8N999)
inactive: IRAK-1-4 Inhibitor I -0.041 | ibrutinib -0.011 | [1] -0.014 | ralimetinib -0.066 | [2] -0.033 | [3] -0.009 | [4] 0.078 | pinometostat 0.018 | [5] 0.037 | [6] -0.118 | [7] -0.02 | [8] -0.045 | [9] 0.041 | [10] 0.005 | Nexturastat A -0.03 | vemurafenib -0.024 | [11] 0.044 | [12] -0.007 | givinostat -0.076 | barasertib 0.011

C1GALT1C1 (UniProt Q96EU7)
inactive: IRAK-1-4 Inhibitor I 0.006 | ibrutinib -0.029 | [1] -0.062 | ralimetinib 0.057 | [2] 0.073 | [3] 0.013 | [4] 0.048 | pinometostat 0.027 | [5] -0.023 | [6] 0.014 | [7] -0.033 | [8] -0.04 | [9] -0.035 | [10] -0.034 | Nexturastat A 0.012 | vemurafenib 0.051 | [11] -0.005 | [12] 0.026 | givinostat 0.004 | barasertib 0.008

BUB3 (UniProt O43684)
inactive: IRAK-1-4 Inhibitor I 0.021 | ibrutinib 0.013 | [1] -0.043 | ralimetinib -0.017 | [2] -0.001 | [3] 0 | [4] 0.009 | pinometostat -0.028 | [5] 0.004 | [6] 0.085 | [7] -0.012 | [8] 0.019 | [9] 0 | [10] 0.013 | Nexturastat A -0.046 | vemurafenib -0.008 | [11] 0.034 | [12] -0.027 | givinostat -0.016 | barasertib -0.024

C2orf49 (UniProt Q9BVC5)
inactive: IRAK-1-4 Inhibitor I -0.061 | ibrutinib -0.095 | [1] 0.041 | ralimetinib 0.112 | [2] 0.028 | [3] -0.086 | [4] 0.15 | pinometostat 0.22 | [5] 0.005 | [6] -0.036 | [7] -0.082 | [8] 0.006 | [9] -0.005 | [10] -0.046 | Nexturastat A 0.139 | vemurafenib 0.002 | [11] -0.116 | [12] 0.175 | givinostat 0.02 | barasertib -0.03

CAPN1 (UniProt P07384)
inactive: IRAK-1-4 Inhibitor I 0.032 | ibrutinib 0.035 | [1] 0.015 | ralimetinib -0.001 | [2] 0.009 | [3] 0.125 | [4] -0.022 | pinometostat -0.041 | [5] 0.01 | [6] 0.035 | [7] 0.01 | [8] 0.008 | [9] 0.016 | [10] 0 | Nexturastat A -0.077 | vemurafenib 0.039 | [11] 0.007 | [12] -0.015 | givinostat -0.023 | barasertib -0.02

C12orf45 (UniProt Q8N5I9)
inactive: IRAK-1-4 Inhibitor I 0.036 | ibrutinib -0.063 | [1] 0.045 | ralimetinib -0.073 | [2] 0 | [3] 0.017 | [4] 0.065 | pinometostat -0.059 | [5] 0.051 | [6] -0.213 | [7] -0.018 | [8] 0.046 | [9] -0.051 | [10] -0.001 | Nexturastat A -0.022 | vemurafenib -0.005 | [11] -0.01 | [12] -0.013 | givinostat -0.005 | barasertib 0.007

C2CD2 (UniProt Q9Y426)
inactive: IRAK-1-4 Inhibitor I -0.018 | ibrutinib -0.03 | [1] -0.02 | ralimetinib 0.051 | [2] 0.101 | [3] 0.019 | [4] 0.019 | pinometostat 0.004 | [5] 0.085 | [6] 0.132 | [7] -0.094 | [8] 0.064 | [9] 0.094 | [10] -0.052 | Nexturastat A -0.103 | vemurafenib 0.18 | [11] 0 | [12] 0.112 | givinostat 0.048 | barasertib 0.007

C11orf54 (UniProt Q9H0W9)
inactive: IRAK-1-4 Inhibitor I 0.063 | ibrutinib 0.041 | [1] 0.025 | ralimetinib -0.035 | [2] -0.043 | [3] 0.046 | [4] 0.024 | pinometostat -0.057 | [5] -0.006 | [6] -0.059 | [7] 0.049 | [8] 0.002 | [9] 0.139 | [10] 0.011 | Nexturastat A 0.06 | vemurafenib 0.062 | [11] -0.02 | [12] -0.008 | givinostat 0.001 | barasertib -0.018

C17orf75 (UniProt Q9HAS0)
inactive: IRAK-1-4 Inhibitor I -0.018 | ibrutinib 0.151 | [1] -0.038 | ralimetinib 0.03 | [2] -0.042 | [3] 0.08 | [4] -0.003 | pinometostat 0.114 | [5] -0.006 | [6] 0.113 | [7] -0.038 | [8] 0.005 | [9] 0.012 | [10] -0.02 | Nexturastat A 0.134 | vemurafenib -0.006 | [11] 0.068 | [12] 0.046 | givinostat 0.114 | barasertib -0.091

Quoted from the entries so far (four entries):
C12orf45 (UniProt Q8N5I9)
inactive: IRAK-1-4 Inhibitor I 0.036 | ibrutinib -0.063 | [1] 0.045 | ralimetinib -0.073 | [2] 0 | [3] 0.017 | [4] 0.065 | pinometostat -0.059 | [5] 0.051 | [6] -0.213 | [7] -0.018 | [8] 0.046 | [9] -0.051 | [10] -0.001 | Nexturastat A -0.022 | vemurafenib -0.005 | [11] -0.01 | [12] -0.013 | givinostat -0.005 | barasertib 0.007

C2CD2 (UniProt Q9Y426)
inactive: IRAK-1-4 Inhibitor I -0.018 | ibrutinib -0.03 | [1] -0.02 | ralimetinib 0.051 | [2] 0.101 | [3] 0.019 | [4] 0.019 | pinometostat 0.004 | [5] 0.085 | [6] 0.132 | [7] -0.094 | [8] 0.064 | [9] 0.094 | [10] -0.052 | Nexturastat A -0.103 | vemurafenib 0.18 | [11] 0 | [12] 0.112 | givinostat 0.048 | barasertib 0.007

C11orf54 (UniProt Q9H0W9)
inactive: IRAK-1-4 Inhibitor I 0.063 | ibrutinib 0.041 | [1] 0.025 | ralimetinib -0.035 | [2] -0.043 | [3] 0.046 | [4] 0.024 | pinometostat -0.057 | [5] -0.006 | [6] -0.059 | [7] 0.049 | [8] 0.002 | [9] 0.139 | [10] 0.011 | Nexturastat A 0.06 | vemurafenib 0.062 | [11] -0.02 | [12] -0.008 | givinostat 0.001 | barasertib -0.018

C17orf75 (UniProt Q9HAS0)
inactive: IRAK-1-4 Inhibitor I -0.018 | ibrutinib 0.151 | [1] -0.038 | ralimetinib 0.03 | [2] -0.042 | [3] 0.08 | [4] -0.003 | pinometostat 0.114 | [5] -0.006 | [6] 0.113 | [7] -0.038 | [8] 0.005 | [9] 0.012 | [10] -0.02 | Nexturastat A 0.134 | vemurafenib -0.006 | [11] 0.068 | [12] 0.046 | givinostat 0.114 | barasertib -0.091

Remaining list, next part

CAPZA1 (UniProt P52907)
inactive: IRAK-1-4 Inhibitor I 0.03 | ibrutinib 0.031 | [1] 0.018 | ralimetinib -0.023 | [2] -0.012 | [3] 0.061 | [4] -0.019 | pinometostat -0.033 | [5] 0.006 | [6] 0.041 | [7] 0.002 | [8] -0.01 | [9] 0.061 | [10] 0.051 | Nexturastat A -0.01 | vemurafenib 0.002 | [11] 0.065 | [12] -0.022 | givinostat 0.029 | barasertib -0.035

C1orf109 (UniProt Q9NX04)
inactive: IRAK-1-4 Inhibitor I 0.014 | ibrutinib 0.015 | [1] 0.014 | ralimetinib -0.038 | [2] -0.141 | [3] 0.119 | [4] 0.038 | pinometostat -0.01 | [5] -0.034 | [6] 0.094 | [7] 0.143 | [8] 0.116 | [9] -0.008 | [10] -0.01 | Nexturastat A 0.194 | vemurafenib -0.069 | [11] -0.035 | [12] 0.034 | givinostat 0.047 | barasertib 0.052

C11orf68 (UniProt Q9H3H3)
inactive: IRAK-1-4 Inhibitor I 0.027 | ibrutinib 0.022 | [1] -0.043 | ralimetinib -0.071 | [2] -0.084 | [3] -0.036 | [4] 0.031 | pinometostat -0.012 | [5] -0.004 | [6] 0.024 | [7] -0.015 | [8] -0.011 | [9] 0.081 | [10] -0.011 | Nexturastat A 0 | vemurafenib 0.049 | [11] 0.171 | [12] -0.028 | givinostat -0.007 | barasertib -0.017

C2CD2L (UniProt O14523)
inactive: IRAK-1-4 Inhibitor I 0.029 | ibrutinib 0.046 | [1] -0.094 | ralimetinib -0.035 | [2] -0.025 | [3] -0.085 | [4] 0.066 | pinometostat 0.028 | [5] -0.002 | [6] 0.083 | [7] -0.03 | [8] 0.083 | [9] -0.003 | [10] -0.019 | Nexturastat A 0.035 | vemurafenib -0.007 | [11] 0.036 | [12] -0.01 | givinostat -0.044 | barasertib 0.022

Source: the supplement of paper PMC10849652
